# Laboratory results taken from PubChem BioAssay AID588347 (National Center for Advancing Translational Sciences (NCATS), 2011).
# By UniProt entry, the sequences of proteins in these tests, tags left out.
# UniProt Q92830, whole entry, looked up: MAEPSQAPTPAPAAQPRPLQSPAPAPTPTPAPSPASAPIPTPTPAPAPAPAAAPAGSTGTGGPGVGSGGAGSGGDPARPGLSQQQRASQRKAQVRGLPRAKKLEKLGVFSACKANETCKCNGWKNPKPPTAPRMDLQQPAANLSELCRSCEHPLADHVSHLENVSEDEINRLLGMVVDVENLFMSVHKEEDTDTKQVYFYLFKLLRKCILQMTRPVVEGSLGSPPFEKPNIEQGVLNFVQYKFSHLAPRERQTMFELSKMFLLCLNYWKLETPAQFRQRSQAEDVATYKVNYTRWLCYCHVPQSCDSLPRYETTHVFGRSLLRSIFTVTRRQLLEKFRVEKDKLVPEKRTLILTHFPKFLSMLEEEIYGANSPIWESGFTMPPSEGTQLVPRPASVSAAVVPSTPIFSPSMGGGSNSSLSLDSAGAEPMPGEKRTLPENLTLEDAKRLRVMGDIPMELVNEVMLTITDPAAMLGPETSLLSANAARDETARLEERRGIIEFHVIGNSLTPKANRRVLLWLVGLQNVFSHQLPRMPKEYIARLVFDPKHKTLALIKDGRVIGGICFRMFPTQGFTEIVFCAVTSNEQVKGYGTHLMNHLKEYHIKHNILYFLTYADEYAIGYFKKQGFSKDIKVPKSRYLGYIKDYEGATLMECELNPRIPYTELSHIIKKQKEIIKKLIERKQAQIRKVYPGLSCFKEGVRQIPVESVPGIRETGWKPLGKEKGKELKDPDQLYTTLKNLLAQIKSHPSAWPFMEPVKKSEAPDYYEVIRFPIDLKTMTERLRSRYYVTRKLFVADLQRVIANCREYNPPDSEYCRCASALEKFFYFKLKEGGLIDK
# This list was built around the results that the source calls inconclusive (neither active nor inactive); the mix of calls is not that of the screen. Where the call is inconclusive, the potency comes from a doubtful curve fit. Active and inactive are the calls of the source. The call rests on the fitted dose curve; in most records, active means well fitted inhibition curve with a large enough effect; inconclusive means small, poorly fitted or top-dose-only effect, or another doubt; inactive means no such curve, though single readings can be large or run the other way.
# Target: Histone acetyltransferase KAT2A (Homo sapiens) (UniProt Q92830)
# Experiment: qHTS Assay for Inhibitors of GCN5L2: Hit confirmation
# Conditions: GCN5L2 HAT, ThioGlo1 CoA fluorescence, 20 min
# Procedure, shortened: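 20nM enzyme and compounds sat 15 min at room temperature in HEPES/EDTA/Tween-20 buffer, pH 7.5, before adding H3(1-25) peptide (75uM), acetyl-CoA (70uM) and ThioGlo1 (50uM). CoA formation was tracked fluorescently (Ex340/Em540) at 0 and 20 min.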
row,SMILES,Potency
1,CCC(C)Sc1ccc(-c2nc3ccccn3c2NCc2ccccc2)cc1OC (stereo unspecified),"inconclusive: 28.9 µM [inhibitor, partial curve]"
2,O=C(COC(=O)c1c2c(nc3ccccc13)/C(=C/c1ccco1)CC2)NC1CCCC1,active: 7.25 µM
3,Cc1ccc(N2C(=O)C3C(C(=O)c4ccccc4)=NN(c4ccccc4)C3C2=O)cc1 (stereo unspecified),"inconclusive: 22.9 µM [inhibitor, partial curve]"
4,CCOC(=O)C1CCN(S(=O)(=O)c2ccc3c4c(cccc24)C(=O)N3CC)CC1,"inconclusive: 32.4 µM [inhibitor, single point]"
5,O=C(/C=C/c1ccccc1)Nc1cccc(S(=O)(=O)Nc2ccccc2F)c1,"inconclusive: 4.57 µM [inhibitor, partial curve]"
6,O=C(C1=NN(c2ccccc2)C2C(=O)N(c3ccccc3Cl)C(=O)C12)c1ccccc1 (stereo unspecified),"inconclusive: 14.5 µM [inhibitor, partial curve]"
7,C=CCc1cccc2cc(C(=O)Nc3ccccc3C(=O)O)c(=O)oc12,"inconclusive: 28.9 µM [inhibitor, partial curve]"
8,O=C(O)c1cccc2c1C(=O)c1ccc(-c3ccc(F)cc3OCc3ccccc3)cc1S2(=O)=O,"inconclusive: 40.8 µM [inhibitor, single point]"
9,O=C1CCC(C(=O)Nc2cccc(S(=O)(=O)Nc3ccccc3F)c2)=NN1,active: 11.5 µM
10,CCOC(=O)Cc1csc(NC(=O)CSc2nnnn2-c2ccc(C)c(C)c2)n1,"inconclusive: 36.3 µM [inhibitor, partial curve]"
11,FC(F)(F)C1CCCN(c2nsc3ccccc23)C1 (stereo unspecified),active: 2.89 µM
12,CCc1ccc(-n2cccc2/C=C2/C(=N)N3C(=NC2=O)SN=C3S(C)(=O)=O)cc1,"inconclusive: 12.9 µM [inhibitor, full curve]"
13,COc1cc(/C=C(/C#N)c2nc3ccccc3[nH]2)ccc1OCC(=O)Nc1ccccc1C(C)C,"inconclusive: 40.8 µM [inhibitor, single point]"
14,N#Cc1c(-c2ccccc2)nc(SCc2cccc(Cl)c2)[nH]c1=O,active: 18.2 µM
15,Cc1cccc(C)c1NC(=O)CSc1nnc(-c2ccco2)c(-c2ccco2)n1,"inconclusive: 18.2 µM [inhibitor, partial curve]"
16,N#Cc1c(-c2cccs2)nc(SCc2ccc(Cl)cc2)[nH]c1=O,active: 28.9 µM
17,Cn1c(SCC(=O)c2ccc(-c3ccccc3)cc2)nnc1-c1ccco1,"inconclusive: 20.4 µM [inhibitor, partial curve]"
18,O=C(/C=C/c1ccco1)Nc1scc(-c2ccccc2)c1C(=O)O,"inconclusive: 18.2 µM [inhibitor, partial curve]"
19,CCC(C)Sc1ccc(-c2nc3ccc(C)cn3c2NC2CCCCC2)cc1 (stereo unspecified),"inconclusive: 22.9 µM [inhibitor, partial curve]"
20,Cc1ccc(S(=O)(=O)NC(C(=O)Oc2ccc3c(C(F)(F)F)cc(=O)oc3c2)c2ccccc2)cc1 (stereo unspecified),"inconclusive: 25.7 µM [inhibitor, partial curve]"
21,O=C(CSc1nc2ccccc2s1)Nc1cc(C(=O)O)cc(C(=O)O)c1,"inconclusive: 20.4 µM [inhibitor, partial curve]"

# Some of the entries above in a different format.
row	SMILES	Potency
18	O=C(/C=C/c1ccco1)Nc1scc(-c2ccccc2)c1C(=O)O	inconclusive: 18.2 µM [inhibitor, partial curve]
20	Cc1ccc(S(=O)(=O)NC(C(=O)Oc2ccc3c(C(F)(F)F)cc(=O)oc3c2)c2ccccc2)cc1 (stereo unspecified)	inconclusive: 25.7 µM [inhibitor, partial curve]
